# Test results from PubChem BioAssay AID540276 (National Center for Advancing Translational Sciences (NCATS), 2011).
# Several values for one entry are separate records, joined by “and”; a condition that tells them apart may be missing. Identical values can stand only once. Out of some 300,000 compounds screened, about 5,400 (1.8%) were called active. The shares of active, inactive and inconclusive entries below differ from those in the screen. Calls follow the shape of the full dose curve; tested in HEK293 cells. A potency beside an inconclusive call is a rough fit, not a confirmed value.
# Assay: qHTS for inhibitors of binding or entry into cells for Marburg Virus
# Settings: Marburg virus pseudotyped entry inhibition, cell reporter; activity change, negative = inhibition: at 37.8 µM (top of the series) unless noted
# % is scaled to controls: 0 for no effect and ±100 for the full control effect; potency is read from the fitted curve at half-maximal effect.
SMILES,"activity change, negative = inhibition",Potency
CCOc1ccc(C(CCc2ccccc2)NC(=O)c2ccccc2)cc1OCC (stereo not drawn),inactive: -24%,
Fc1ccccc1NC(=S)Nc1ccc(CN2CCOCC2)cc1,inactive: 8.2% [at 46.1 µM],
O=C(COC(=O)c1ccc(-c2ccccc2)cc1)Nc1ccccc1-c1ccccc1,,"inconclusive: 35.5 µM [activator, single point]"
Cc1cc(Nc2ccc(N3CCOCC3)cc2)c2cccc(C)c2n1,,active: 0.794 µM
CN(c1ccc(OCc2nnc(-c3ccccc3)o2)cc1)S(=O)(=O)c1ccccc1,,"inconclusive: 12.6 µM [inhibitor, single point]"
CCc1ccc(S(=O)(=O)/N=C2\C=C(Nc3ccc(C(=O)O)cc3)C(=O)c3ccccc32)cc1,,"inconclusive: 20 µM [inhibitor, single point]"
CCCOc1cccc(-c2nn(-c3ccccc3)cc2/C=C(\C#N)C(=O)NCCCn2ccnc2)c1,,"inconclusive: 28.2 µM [inhibitor, single point]"
CC(C)(C)NC(=O)C(c1ccccn1)N(C(=O)c1csnn1)C1CCCC1 (stereo not drawn),,"inconclusive: 35.5 µM [activator, single point]"
CC(=O)Nc1nc2n(n1)C(c1ccccc1)C=C(c1ccccc1)N2 (stereo not drawn),inactive: -5.25%,
CN(CCc1ccccn1)C(=O)CC1C(=O)NCCN1Cc1ccc(-c2ccccc2)cc1 (stereo not drawn),inactive: -18.7% [at 46.1 µM],
Cc1ccc(C)c(Cn2nnc3c(=O)[nH]c(C(=O)NCc4ccco4)nc32)c1,inactive: -16.7%,
CCOC(=O)c1cnc2ccc(OCC)cc2c1N1CCN(C)CC1,,"inconclusive: 35.5 µM [inhibitor, single point]"
Cc1ccc(NC(=O)Cn2c(=O)n(CCC(=O)NCc3ccccc3Cl)c(=O)c3ccccc32)cc1,inactive: -21.1% [at 46.1 µM],
C=CCc1c(C)nc2c(-c3ccccc3)cnn2c1N1CCOCC1,,"inconclusive: 1.41 µM [activator, full curve, poor fit]"
COC(=O)c1cn(C(=O)OC)c2ccccc12,,"inconclusive: 35.5 µM [activator, partial curve, poor fit]"
Cc1cc(NC(=O)C(=O)c2c(C)[nH]c3ccccc23)no1,,"inconclusive: 3.16 µM [activator, partial curve, poor fit]"
Cc1sc(-n2c(C)cc(/C=C3\SC(=S)NC3=O)c2C)c(C#N)c1C,,"inconclusive: 18.3 µM [inhibitor, single point]"
COc1ccc(-c2cc3nc(CCl)[nH]c(=O)c3s2)cc1,,"inconclusive: 3.98 µM [inhibitor, full curve, poor fit]"
CCOc1ccc(NC(=O)CN(C)C(=O)c2cn(-c3ccccc3)nc2-c2cccs2)cc1OCC,inactive: -41.2%,
N/C(Cc1ccc([N+](=O)[O-])cc1)=N\OC(=O)c1ccccc1Br,,"inconclusive: 14.6 µM [inhibitor, single point]"
Cc1ccc(S(=O)(=O)N2CCN(c3ncccn3)CC2)cc1C,,"inconclusive: 6.31 µM [inhibitor, single point]"
Cc1cc(C)c(C)c(OCc2nc(-c3cccnc3)no2)c1,inactive: -2.76%,
O=C(O)c1cccc(N/N=C/c2cccnc2)c1,,"inconclusive: 2.82 µM [inhibitor, full curve, poor fit]"

SMILES,"activity change, negative = inhibition",Potency
Cc1ccc(S(=O)(=O)N2CCC(C(=O)Nc3nnc(C4CCCC4)s3)CC2)cc1,,"inconclusive: 1.64 µM [inhibitor, partial curve, poor fit]"
Cc1ccc(N2C(=O)CC(NNC(=O)c3cccc(S(=O)(=O)N4CCCC4)c3)C2=O)cc1 (stereo not drawn),,"inconclusive: 3.55 µM [inhibitor, single point]"
CCS(=O)(=O)N1CCC(C(=O)O)CC1,,"inconclusive: 29.1 µM [activator, single point]"
CC(=O)OC[C@H]1O[C@H](c2ccc(C(C)=O)cc2)C=C[C@@H]1OC(C)=O,inactive: 1.73% [at 14.2 µM],
CCNc1nc(NC(C)(C)C)nc(Oc2ccc(=O)n(C)n2)n1,inactive: 10.8% [at 46.1 µM],
COc1ccc(S(=O)(=O)N2CCSC2c2ccc(OC)c(OC)c2)cc1 (stereo not drawn),inactive: 2.1%,
COC1=C(Nc2ccc(O)cc2)C(=O)c2ccccc2C1=O,,"inconclusive: 7.94 µM [inhibitor, partial curve, poor fit]"
Cc1ccc(-n2cc(CNC(C)Cn3cncn3)c(-c3ccc(F)cc3)n2)cc1 (stereo not drawn),,"inconclusive: 0.112 µM [activator, full curve, poor fit]"
COc1cc2c(cc1OC)CN(C(=O)CSc1nc3[nH]ncc3c(=O)n1-c1ccccc1)CC2,inactive: -3.95%,
CCNC(=S)NNC(=O)c1cc(-c2ccc(OCC)cc2)nc2ccccc12,,"inconclusive: 2.06 µM [inhibitor, full curve, poor fit]"
O=c1cn[nH]c2ccc(Br)cc12,,"inconclusive: 3.98 µM [activator, single point]"
COc1cccc(CNc2ccc(Br)cn2)c1O,,"inconclusive: 0.73 µM [activator, partial curve, poor fit]"
COc1ccc(-c2csc(-c3ccccc3)n2)c(OC)c1,,"inconclusive: 29.1 µM [inhibitor, single point]"
CC(=O)c1ccc(NC(=O)COC(=O)CCC2CCCC2)cc1,,"inconclusive: 6.31 µM [inhibitor, single point]"
Cc1ccsc1/C=C(\C#N)C(=O)NCc1ccco1,,"inconclusive: 28.2 µM [activator, single point]"
c1ccc(-c2nc3nc4ccccc4nc3n2Cc2ccco2)cc1,inactive: -12.2%,
Cc1cc(C(C)(C)C)ccc1OCCN1CCCC1,,"inconclusive: 12.6 µM [inhibitor, partial curve, poor fit]"
Cn1c(=O)c2ccccc2n(Cc2cccc(F)c2)c1=O,,"inconclusive: 3.55 µM [inhibitor, full curve, poor fit]"
O=C(Nc1ccc(Cl)c(C(F)(F)F)c1)NC1CC2CCCC(C1)N2C1CC1 (stereo not drawn),,"inconclusive: 11.2 µM [inhibitor, partial curve]"
CCC(C)n1c(-c2cccs2)nc2nc3ccccc3nc21 (stereo not drawn),,"inconclusive: 15.8 µM [inhibitor, partial curve, poor fit]"
COc1ccc(-c2onc(C)c2-c2cnn(-c3ccccc3)c2)c(O)c1,,"inconclusive: 35.5 µM [inhibitor, single point]"
CC(=O)N1CCCC1c1nc2ccccc2n1Cc1ccccc1C (stereo not drawn),,"inconclusive: 7.08 µM [inhibitor, partial curve, poor fit]"
O=C(c1ccccc1)c1ccc(OC(=O)N2CCOCC2)cc1,inactive: 11.8%,

SMILES,"activity change, negative = inhibition",Potency
Cc1cc(/C=C2/NC(=O)N(c3ccccc3)C2=O)c(C)n1C(C)C,,"inconclusive: 1.41 µM [activator, partial curve, poor fit]"
O=C(N/N=C/c1ccc(N2CCOCC2)o1)c1cccc(F)c1,inactive: -15.8%,
Cc1ccc(OCC(O)CN2CCN(Cc3ccc4c(c3)OCO4)CC2)c(C)c1 (stereo not drawn),,"inconclusive: 18.3 µM [inhibitor, partial curve, poor fit] and inconclusive: 22.4 µM [inhibitor, single point]"
CCN1CCN(C(=O)c2ccc(OCC(=O)Nc3ccc(F)cc3)c(OC)c2)CC1,inactive: 17.9% [at 46.1 µM],
COc1ccc(CC2C(=O)Nc3ccc(Br)cc32)cc1OC (stereo not drawn),inactive: 2.08% [at 46.1 µM],
CCOC(=O)c1sc2nc3c(cc2c1N)COC(C)(C)C3,,"inconclusive: 0.562 µM [activator, partial curve, poor fit]"
COC(=O)c1cc(S(=O)(=O)N2CCN(c3cccc(OC)c3)CC2)cn1C,inactive: -5.94% [at 46.1 µM],
O=C(COC(=O)CCCCCN=C1NS(=O)(=O)c2ccccc21)Nc1ccc(Cl)c(Cl)c1,,"inconclusive: 4.61 µM [activator, full curve, poor fit]"
Cn1c(=O)[nH]c(=O)c2c1nc(CN1CCN(c3ccccc3F)CC1)n2CCCc1ccccc1,,"inconclusive: 16.4 µM [inhibitor, single point]"
O=C(/C=C/c1ccc2c(c1)OCO2)c1ccco1,inactive: 0.627%,
CCOC(=O)C1(Cc2ccccc2C(F)(F)F)CCN(CC2CC2)CC1,,"inconclusive: 6.31 µM [inhibitor, partial curve, poor fit]"
CCC1Oc2ccc(C)cc2N(CC(=O)NCCCN2CCCC2)C1=O (stereo not drawn),,"inconclusive: 11.2 µM [inhibitor, partial curve, poor fit]"
COc1ccc(-c2cc(C(=O)Nc3cc(C)on3)no2)cc1,inactive: -0.269% [at 46.1 µM],
Cc1ccc(C)c(S(=O)(=O)NC(C)C(=O)NCc2ccccn2)c1 (stereo not drawn),,"inconclusive: 6.31 µM [inhibitor, single point]"
Cc1cc2oc(=O)cc(CN3CCCC3)c2cc1C,,"inconclusive: 11.2 µM [activator, single point]"
COc1cccc(CNc2ccc(S(N)(=O)=O)cc2)c1OC,inactive: -2.93%,
COc1ccccc1CN1C[C@@H]2C[C@@H](c3cccc(C)c3)N3CCC[C@@]23C1=O,,"inconclusive: 28.2 µM [inhibitor, partial curve, poor fit]"
CCOc1ccc(NC(=O)CN2CCN(CC(=O)Nc3ccc(C(=O)OC)cc3)CC2)cc1,,"inconclusive: 0.562 µM [activator, partial curve, poor fit]"
CCCCn1c(NCc2ccc(N(C)C)cc2)nc2ccccc21,,"inconclusive: 10 µM [inhibitor, partial curve, poor fit]"
CCOc1ccc(C(=O)Nc2nnn(CC)n2)cc1,inactive: 8.13%,
Cc1ccc2nc(-c3ccc(SCC(=O)O)nc3)[nH]c2c1,,"inconclusive: 7.94 µM [inhibitor, partial curve, poor fit]"
COC(=O)c1ccc2c(c1)C(C)(C)C(/C=C/c1ccccc1O)=[N+]2C,,"inactive and inconclusive: 29.1 µM [inhibitor, single point]"
